In assay [1] the target is Annexin II endogenous to human HCT-116 colon cancer cells and human colonic tissue samples (human) (UniProt P07355). As to the kind of experiment: pull-down and co-localization in HCT-116 cells (FIG. 4C).
Assay [2] deals with Annexin II in colonic crypts of transgenic (Fabp-PG) mice (mouse) (UniProt P07356). Description: immunofluorescence co-localization in tissue (FIG. 4C panel iii).
For assay [3], the target named is Annexin II endogenous to human HCT-116 colon cancer cells and human colonic tissue samples (human) (UniProt P07355). As to the kind of experiment: immunofluorescence co-localization in patient adenoma and adenocarcinoma samples.
Assay [4] has the same target. As to the kind of experiment: pull-down with progastrin-antibody, Western blot; immunofluorescence co-localization in HCT-116 cells (FIG. 4C). On the technique in general: A western blot detects proteins with antibodies after separation by electrophoresis.
A further assay addresses T1, CCK2R on AR42J cells (UniProt P30553 1-452, limits assumed).
T1 construct: whole, on cells
T1 sequence (looked up): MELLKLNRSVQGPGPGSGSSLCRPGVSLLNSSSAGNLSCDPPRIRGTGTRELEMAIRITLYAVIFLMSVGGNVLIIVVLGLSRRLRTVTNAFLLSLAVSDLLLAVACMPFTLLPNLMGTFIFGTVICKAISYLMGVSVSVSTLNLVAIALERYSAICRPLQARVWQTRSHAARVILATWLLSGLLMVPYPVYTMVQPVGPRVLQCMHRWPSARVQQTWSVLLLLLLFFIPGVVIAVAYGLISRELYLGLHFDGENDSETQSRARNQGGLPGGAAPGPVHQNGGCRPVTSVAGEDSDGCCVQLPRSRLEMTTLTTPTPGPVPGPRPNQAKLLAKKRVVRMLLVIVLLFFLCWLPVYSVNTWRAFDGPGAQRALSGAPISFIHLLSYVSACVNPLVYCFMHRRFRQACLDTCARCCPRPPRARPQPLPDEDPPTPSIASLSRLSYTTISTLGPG
As to the kind of experiment: displacement of ^125I-BH-CCK8 from AR42J cells.

By UniProt entry, the sequences of proteins in these tests, tags left out. Where a name states a change or a piece, a line headed by the entry shows the natural chain unless it says otherwise. Residues count along the entry.
UniProt P07355, residues 2-339: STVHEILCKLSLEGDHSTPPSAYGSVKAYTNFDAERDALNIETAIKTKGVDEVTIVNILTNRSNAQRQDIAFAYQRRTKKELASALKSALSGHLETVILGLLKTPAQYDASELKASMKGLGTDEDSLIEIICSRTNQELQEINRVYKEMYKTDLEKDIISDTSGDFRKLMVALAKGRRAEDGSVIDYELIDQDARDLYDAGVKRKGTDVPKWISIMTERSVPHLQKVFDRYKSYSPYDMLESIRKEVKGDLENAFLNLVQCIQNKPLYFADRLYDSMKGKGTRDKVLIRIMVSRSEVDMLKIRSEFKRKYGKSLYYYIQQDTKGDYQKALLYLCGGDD
UniProt P07356, residues 2-339: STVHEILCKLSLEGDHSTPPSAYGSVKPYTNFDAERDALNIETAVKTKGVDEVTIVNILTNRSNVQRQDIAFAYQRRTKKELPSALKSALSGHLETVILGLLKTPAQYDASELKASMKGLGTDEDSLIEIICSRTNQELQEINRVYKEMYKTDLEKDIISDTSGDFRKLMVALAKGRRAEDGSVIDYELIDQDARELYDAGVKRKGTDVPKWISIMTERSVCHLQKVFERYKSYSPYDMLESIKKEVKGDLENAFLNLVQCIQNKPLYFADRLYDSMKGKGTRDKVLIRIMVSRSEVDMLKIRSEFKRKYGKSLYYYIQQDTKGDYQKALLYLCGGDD
UniProt P06307: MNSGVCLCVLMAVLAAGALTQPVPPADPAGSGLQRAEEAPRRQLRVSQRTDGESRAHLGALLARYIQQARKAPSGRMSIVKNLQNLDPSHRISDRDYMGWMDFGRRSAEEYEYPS

Consider 3 molecules from patent publication US20080187577A1 (University of Texas, published 2008).

Results are given in words; binding and its absence hold for the method and conditions named. Some results given as binding are weak or reduced against the parent protein; the word gives no strength.

B1: progastrin (PG) expressed endogenously: autocrine PG of HCT-116 cells, PG of human adenomas/adenocarcinomas, human PG transgene in Fabp-PG mice (ligand)
chain: SWKPRSQQPDAPLGTGANRDLELPWLEQQGPASHHRRQLGPQGPPHLVADPSKKQGPWLEEEEEAYGWMDFGRRSAEDEN
Take B1: the binding result in assay [1], in assay [2], in assay [3] and in assay [4] was “binds” in each case.

B2: cholecystokinin (CCK-8) (peptide, UniProt P06307 96-103, looked up)
peptide: DYMGWMDF
modifications: amidated peptide; the tracer form carries a ^125I-Bolton Hunter label
Consider B2, for which the binding entry in the assay with CCK2R on AR42J cells is given as “binds”.

B3: G17 (amidated gastrin, 17 amino acids) (peptide, UniProt P01350 76-92, looked up)
peptide: QGPWLEEEEEAYGWMDF
modifications: C-terminally amidated
For B3, the binding entry in the assay with CCK2R on AR42J cells was “binds”.
